The values below come from paper doi:10.1101/2024.10.17.618419.

By UniProt entry, the sequences of proteins in these tests, tags left out. Residues count along the entry.
UniProt Q99497: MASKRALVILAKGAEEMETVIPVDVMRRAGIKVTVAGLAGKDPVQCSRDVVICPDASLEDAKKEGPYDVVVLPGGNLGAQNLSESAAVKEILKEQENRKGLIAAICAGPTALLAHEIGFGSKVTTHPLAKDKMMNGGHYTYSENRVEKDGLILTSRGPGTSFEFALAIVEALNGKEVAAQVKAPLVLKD
UniProt P0DMV8: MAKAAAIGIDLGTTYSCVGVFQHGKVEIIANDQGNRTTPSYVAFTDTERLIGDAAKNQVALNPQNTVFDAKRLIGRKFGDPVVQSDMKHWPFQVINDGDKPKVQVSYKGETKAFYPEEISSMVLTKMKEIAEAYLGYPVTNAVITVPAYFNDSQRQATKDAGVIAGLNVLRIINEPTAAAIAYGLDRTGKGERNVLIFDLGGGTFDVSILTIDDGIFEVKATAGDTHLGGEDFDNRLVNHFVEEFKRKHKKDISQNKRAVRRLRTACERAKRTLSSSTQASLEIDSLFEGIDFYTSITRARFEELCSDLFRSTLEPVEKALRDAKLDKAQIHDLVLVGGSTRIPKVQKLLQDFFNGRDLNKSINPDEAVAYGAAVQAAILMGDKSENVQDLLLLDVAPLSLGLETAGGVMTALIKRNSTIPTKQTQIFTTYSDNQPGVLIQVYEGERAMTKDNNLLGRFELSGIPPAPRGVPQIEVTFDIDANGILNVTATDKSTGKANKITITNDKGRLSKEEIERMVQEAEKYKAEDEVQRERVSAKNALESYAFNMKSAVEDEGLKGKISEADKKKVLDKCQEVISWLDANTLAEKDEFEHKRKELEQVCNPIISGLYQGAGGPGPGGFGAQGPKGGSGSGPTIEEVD
UniProt Q92598: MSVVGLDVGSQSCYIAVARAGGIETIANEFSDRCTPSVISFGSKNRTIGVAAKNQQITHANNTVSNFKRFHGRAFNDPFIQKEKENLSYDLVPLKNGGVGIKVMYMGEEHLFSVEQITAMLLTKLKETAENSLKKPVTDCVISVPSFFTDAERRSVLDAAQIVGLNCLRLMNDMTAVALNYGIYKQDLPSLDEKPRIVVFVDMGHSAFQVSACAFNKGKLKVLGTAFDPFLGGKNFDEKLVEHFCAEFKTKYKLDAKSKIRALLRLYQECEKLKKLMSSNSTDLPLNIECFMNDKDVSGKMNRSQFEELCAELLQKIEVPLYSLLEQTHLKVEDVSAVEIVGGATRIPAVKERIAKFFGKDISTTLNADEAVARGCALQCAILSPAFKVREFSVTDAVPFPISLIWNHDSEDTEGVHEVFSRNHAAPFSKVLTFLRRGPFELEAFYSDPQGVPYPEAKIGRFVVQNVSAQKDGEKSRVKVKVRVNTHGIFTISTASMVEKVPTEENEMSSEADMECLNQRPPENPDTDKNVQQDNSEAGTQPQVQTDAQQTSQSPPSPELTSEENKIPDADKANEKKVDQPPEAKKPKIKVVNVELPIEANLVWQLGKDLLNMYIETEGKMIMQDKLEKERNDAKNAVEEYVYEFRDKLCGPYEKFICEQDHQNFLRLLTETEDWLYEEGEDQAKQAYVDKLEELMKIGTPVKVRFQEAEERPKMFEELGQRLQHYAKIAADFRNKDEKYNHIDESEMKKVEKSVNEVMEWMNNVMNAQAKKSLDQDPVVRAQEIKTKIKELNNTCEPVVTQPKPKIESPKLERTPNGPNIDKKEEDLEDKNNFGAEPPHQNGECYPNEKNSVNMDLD
UniProt P37198: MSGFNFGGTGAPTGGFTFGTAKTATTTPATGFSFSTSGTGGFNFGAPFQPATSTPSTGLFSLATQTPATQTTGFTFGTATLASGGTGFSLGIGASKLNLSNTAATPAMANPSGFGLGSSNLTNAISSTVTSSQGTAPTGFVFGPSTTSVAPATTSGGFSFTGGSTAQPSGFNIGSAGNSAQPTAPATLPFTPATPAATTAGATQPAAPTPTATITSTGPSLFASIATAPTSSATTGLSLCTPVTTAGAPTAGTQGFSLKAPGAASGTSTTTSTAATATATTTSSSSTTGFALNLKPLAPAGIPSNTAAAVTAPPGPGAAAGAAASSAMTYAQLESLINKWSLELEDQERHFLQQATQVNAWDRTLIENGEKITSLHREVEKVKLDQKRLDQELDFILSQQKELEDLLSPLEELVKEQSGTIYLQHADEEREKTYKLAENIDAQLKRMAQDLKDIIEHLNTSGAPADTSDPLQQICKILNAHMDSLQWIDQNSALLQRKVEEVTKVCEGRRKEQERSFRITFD
UniProt P38646, residues 47-679: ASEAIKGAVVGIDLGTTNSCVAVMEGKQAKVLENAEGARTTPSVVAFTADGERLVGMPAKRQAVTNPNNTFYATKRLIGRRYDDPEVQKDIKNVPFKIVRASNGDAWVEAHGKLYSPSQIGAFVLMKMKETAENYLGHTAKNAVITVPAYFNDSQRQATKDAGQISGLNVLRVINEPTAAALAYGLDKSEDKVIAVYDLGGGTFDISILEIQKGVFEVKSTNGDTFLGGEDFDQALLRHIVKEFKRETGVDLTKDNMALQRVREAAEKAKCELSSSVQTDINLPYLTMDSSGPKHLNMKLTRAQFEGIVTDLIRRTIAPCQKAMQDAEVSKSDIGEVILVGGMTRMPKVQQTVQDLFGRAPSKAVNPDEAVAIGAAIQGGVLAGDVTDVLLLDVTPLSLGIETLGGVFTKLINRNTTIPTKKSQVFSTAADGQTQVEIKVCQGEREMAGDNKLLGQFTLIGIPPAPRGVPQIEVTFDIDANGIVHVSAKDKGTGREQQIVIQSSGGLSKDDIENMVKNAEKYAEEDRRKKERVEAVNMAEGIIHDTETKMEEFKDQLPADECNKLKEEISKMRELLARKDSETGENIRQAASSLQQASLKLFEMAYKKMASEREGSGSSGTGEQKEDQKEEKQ

Common to all, as to experiment: affinity purification with mass spectrometry
In assay [1] the target is FLAG-tagged PARK7 (UniProt Q99497).
The target in assay [2] is T1, FLAG-tagged TRAP1 (tumor necrosis factor receptor-associated protein 1) (UniProt Q12931).
T1 sequence: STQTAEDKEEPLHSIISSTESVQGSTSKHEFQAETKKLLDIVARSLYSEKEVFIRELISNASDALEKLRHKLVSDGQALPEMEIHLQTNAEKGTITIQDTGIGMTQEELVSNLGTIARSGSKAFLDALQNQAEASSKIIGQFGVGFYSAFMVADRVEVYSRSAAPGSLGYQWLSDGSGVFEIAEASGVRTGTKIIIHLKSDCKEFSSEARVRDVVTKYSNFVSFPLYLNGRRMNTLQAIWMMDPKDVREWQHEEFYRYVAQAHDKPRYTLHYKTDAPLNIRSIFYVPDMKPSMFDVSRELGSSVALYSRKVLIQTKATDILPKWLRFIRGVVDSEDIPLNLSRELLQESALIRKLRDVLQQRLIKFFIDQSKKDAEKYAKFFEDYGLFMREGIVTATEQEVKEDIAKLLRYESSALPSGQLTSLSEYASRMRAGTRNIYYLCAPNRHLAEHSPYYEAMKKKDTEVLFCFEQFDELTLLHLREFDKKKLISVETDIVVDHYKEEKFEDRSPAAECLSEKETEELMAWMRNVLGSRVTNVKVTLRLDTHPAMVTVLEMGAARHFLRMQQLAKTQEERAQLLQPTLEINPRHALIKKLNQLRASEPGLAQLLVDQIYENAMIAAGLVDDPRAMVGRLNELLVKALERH

The target in assay [3] is FLAG-tagged MAP2K1 (MEK1) (UniProt Q02750).
Assay [4] concerns the target FLAG-tagged PARK7 (UniProt Q99497). This is another data set of the same source.

Like-named read-outs stand apart in the source and are kept apart here. No constants are given. Whether binding was seen depends on the method and setting. Binding seen in cells or lysates may run through a third protein. A yes stands for co-enrichment or nearness to the bait. Other partners may have been found. For some assays here: A no says only that the protein was not detected with the bait. For some assays here: Tags and fused reporters may be left off the sequences shown.

For “heat shock 70 kDa protein 1A (HSPA1A) (from UniProt P0DMV8 1-641)”, the binding entry in the assay with FLAG-tagged PARK7 [1] is listed as “binds”.
The same measure, in the same setting: with “heat shock protein 105 kDa (HSPH1) (from UniProt Q92598 1-858)” the entry was “binds”; with “nucleoporin 62 (NUP62) (from UniProt P37198 1-522)”, “binds”; with “mitochondrial HSP70 – HSPA9 (GRP/mtHSP70/mortalin) (from UniProt P38646 47-679)”, “binds”.

B1: ACAT1, acetyl-CoA acetyltransferase 1 (enzyme, UniProt P24752 34-427)
chain: VSKPTLKEVVIVSATRTPIGSFLGSLSLLPATKLGSIAIQGAIEKAGIPKEEVKEAYMGNVLQGGEGQAPTRQAVLGAGLPISTPCTTINKVCASGMKAIMMASQSLMCGHQDVMVAGGMESMSNVPYVMNRGSTPYGGVKLEDLIVKDGLTDVYNKIHMGSCAENTAKKLNIARNEQDAYAINSYTRSKAAWEAGKFGNEVIPVTVTVKGQPDVVVKEDEEYKRVDFSKVPKLKTVFQKENGTVTAANASTLNDGAAALVLMTADAAKRLNVTPLARIVAFADAAVEPIDFPIAPVYAASMVLKDVGLKKEDIAMWEVNEAFSLVVLANIKMLEIDPQKVNINGGAVSLGHPIGMSGARIVGHLTHALKQGEYGLASICNGGGGASAMLIQKL
Consider B1, for which, in assay [2], the binding result is recorded as “binds”.

B2: Myotubularin-related protein 14 (MTMR14) (protein, UniProt Q8NCE2 1-650)
chain: MAGARAAAAAASAGSSASSGNQPPQELGLGELLEEFSRTQYRAKDGSGTGGSKVERIEKRCLELFGRDYCFSVIPNTNGDICGHYPRHIVFLEYESSEKEKDTFESTVQVSKLQDLIHRSKMARCRGRFVCPVILFKGKHICRSATLAGWGELYGRSGYNYFFSGGADDAWADVEDVTEEDCALRSGDTHLFDKVRGYDIKLLRYLSVKYICDLMVENKKVKFGMNVTSSEKVDKAQRYADFTLLSIPYPGCEFFKEYKDRDYMAEGLIFNWKQDYVDAPLSIPDFLTHSLNIDWSQYQCWDLVQQTQNYLKLLLSLVNSDDDSGLLVHCISGWDRTPLFISLLRLSLWADGLIHTSLKPTEILYLTVAYDWFLFGHMLVDRLSKGEEIFFFCFNFLKHITSEEFSALKTQRRKSLPARDGGFTLEDICMLRRKDRGSTTSLGSDFSLVMESSPGATGSFTYEAVELVPAGAPTQAAWRKSHSSSPQSVLWNRPQPSEDRLPSQQGLAEARSSSSSSSNHSDNFFRMGSSPLEVPKPRSVDHPLPGSSLSTDYGSWQMVTGCGSIQERAVLHTDSSLPFSFPDELPNSCLLAALSDRETRLQEVRSAFLAAYSSTVGLRAVAPSPSGAIGGLLEQFARGVGLRSISSNAL
On to B2, for which the binding result in assay [3] is recorded as “no binding”.

B3: ferredoxin reductase (FXDR) (enzyme, UniProt P22570 33-491)
chain: STQEKTPQICVVGSGPAGFYTAQHLLKHPQAHVDIYEKQPVPFGLVRFGVAPDHPEVKNVINTFTQTAHSGRCAFWGNVEVGRDVTVPELREAYHAVVLSYGAEDHRALEIPGEELPGVCSARAFVGWYNGLPENQELEPDLSCDTAVILGQGNVALDVARILLTPPEHLERTDITKAALGVLRQSRVKTVWLVGRRGPLQVAFTIKELREMIQLPGARPILDPVDFLGLQDKIKEVPRPRKRLTELLLRTATEKPGPAEAARQASASRAWGLRFFRSPQQVLPSPDGRRAAGVRLAVTRLEGVDEATRAVPTGDMEDLPCGLVLSSIGYKSRPVDPSVPFDSKLGVIPNVEGRVMDVPGLYCSGWVKRGPTGVIATTMTDSFLTGQMLLQDLKAGLLPSGPRPGYAAIQALLSSRGVRPVSFSDWEKLDAEEVARGQGTGKPREKLVDPQEMLRLLGH
Regarding B3, the binding result with FLAG-tagged PARK7 [4] is on record as “binds”.

B4: MOB kinase activator 2 (MOB2) (protein, UniProt Q70IA6 1-237)
chain: MDWLMGKSKAKPNGKKPAAEERKAYLEPEHTKARITDFQFKELVVLPREIDLNEWLASNTTTFFHHINLQYSTISEFCTGETCQTMAVCNTQYYWYDERGKKVKCTAPQYVDFVMSSVQKLVTDEDVFPTKYGREFPSSFESLVRKICRHLFHVLAHIYWAHFKETLALELHGHLNTLYVHFILFAREFNLLDPKETAIMDDLTEVLCSGAGGVHSGGSGDGAGSGGPGAQNHVKER
As to B4, the binding result in assay [3] was “no binding”.

B5: PMPCA (protein, UniProt Q10713 34-525)
chain: SSGGAYPNIPLSSPLPGVPKPVFATVDGQEKFETKVTTLDNGLRVASQNKFGQFCTVGILINSGSRYEAKYLSGIAHFLEKLAFSSTARFDSKDEILLTLEKHGGICDCQTSRDTTMYAVSADSKGLDTVVALLADVVLQPRLTDEEVEMTRMAVQFELEDLNLRPDPEPLLTEMIHEAAYRENTVGLHRFCPTENVAKINREVLHSYLRNYYTPDRMVLAGVGVEHEHLVDCARKYLLGVQPAWGSAEAVDIDRSVAQYTGGIAKLERDMSNVSLGPTPIPELTHIMVGLESCSFLEEDFIPFAVLNMMMGGGGSFSAGGPGKGMFSRLYLNVLNRHHWMYNATSYHHSYEDTGLLCIHASADPRQVREMVEIITKEFILMGGTVDTVELERAKTQLTSMLMMNLESRPVIFEDVGRQVLATRSRKLPHELCTLIRNVKPEDVKRVASKMLRGKPAVAALGDLTDLPTYEHIQTALSSKDGRLPRTYRLFR
On to B5, for which, in assay [2], the binding result is reported as “binds”.

B6: CDC37 (protein, UniProt Q16543 1-378)
chain: MVDYSVWDHIEVSDDEDETHPNIDTASLFRWRHQARVERMEQFQKEKEELDRGCRECKRKVAECQRKLKELEVAEGGKAELERLQAEAQQLRKEERSWEQKLEEMRKKEKSMPWNVDTLSKDGFSKSMVNTKPEKTEEDSEEVREQKHKTFVEKYEKQIKHFGMLRRWDDSQKYLSDNVHLVCEETANYLVIWCIDLEVEEKCALMEQVAHQTIVMQFILELAKSLKVDPRACFRQFFTKIKTADRQYMEGFNDELEAFKERVRGRAKLRIEKAMKEYEEEERKKRLGPGGLDPVEVYESLPEELQKCFDVKDVQMLQDAISKMDPTDAKYHMQRCIDSGLWVPNSKASEAKEGEEAGPGDPLLEAVPKTGDEKDVSV
Regarding B6, in assay [3], the binding result was “binds”.

B7: β-MPP (PMPCB) (protein, UniProt O75439 44-489)
chain: STQAATQVVLNVPETRVTCLESGLRVASEDSGLSTCTVGLWIDAGSRYENEKNNGTAHFLEHMAFKGTKKRSQLDLELEIENMGAHLNAYTSREQTVYYAKAFSKDLPRAVEILADIIQNSTLGEAEIERERGVILREMQEVETNLQEVVFDYLHATAYQNTALGRTILGPTENIKSISRKDLVDYITTHYKGPRIVLAAAGGVSHDELLDLAKFHFGDSLCTHKGEIPALPPCKFTGSEIRVRDDKMPLAHLAIAVEAVGWAHPDTICLMVANTLIGNWDRSFGGGMNLSSKLAQLTCHGNLCHSFQSFNTSYTDTGLWGLYMVCESSTVADMLHVVQKEWMRLCTSVTESEVARARNLLKTNMLLQLDGSTPICEDIGRQMLCYNRRIPIPELEARIDAVNAETIREVCTKYIYNRSPAIAAVGPIKQLPDFKQIRSNMCWLRD
For B7, the binding entry in assay [2] is “binds”.
